Results deposited as PubChem BioAssay AID1259254 (NCATS, 2017)

Screen: 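Genome-wide screen for genes that prevent DNA re-replication in cancer cells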 (primary screen)
Cell system: human HCT116 colorectal cancer cells
Reagent: single siRNA against human genes
Duration: 3 days
Measurement: 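Imaged Hoechst DNA stain sorts each cell into a cycle phase by DNA amount; per plate, G2 fraction set to 0% for non-targeting and 100% for GMNN siRNA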
Scale: G2 robust z-score and G2 cells, % of GMNN control: higher = more G2 cells, more excess DNA replication
Hit rule: 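Active siRNAs have a G2 robust z of 5 or more median absolute deviations over the median, which in these data means about 38% or higher of GMNN control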
The deposit covers about 59,000 reagents; shown is an unselected part. About 1,550 of all reagents (2.6%) were called active. 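G2 share is only a proxy for re-replication; each gene was hit by three separate siRNAs, and active genes were retested.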 The numbers tell different reagents against one gene apart. Further read-outs or replicates are left out here. Not stated in the record: the amount of reagent.

target gene | reagent no. | G2 robust z-score | G2 cells, % of GMNN control | call
MADD | 1 | -0.22 | 1.42 | inactive
MADD | 2 | 0.903 | 9.32 | inactive
MADD | 3 | 0.2 | 4.38 | inactive
MORN3 | 1 | -0.2 | 1.56 | inactive
MORN3 | 2 | 2.76 | 22.4 | inactive
MORN3 | 3 | -0.857 | -3.07 | inactive
ZNF433 | 1 | -0.322 | 0.702 | inactive
ZNF433 | 2 | 0.242 | 4.67 | inactive
ZNF433 | 3 | 0.888 | 9.21 | inactive
SETDB2 | 1 | 2.46 | 20.3 | inactive
SETDB2 | 2 | -0.594 | -1.21 | inactive
SETDB2 | 3 | -0.471 | -0.343 | inactive
FLI1 | 1 | -0.432 | -0.0725 | inactive
FLI1 | 2 | -0.25 | 1.21 | inactive
FLI1 | 3 | -0.555 | -0.939 | inactive
KIFC2 | 1 | 1.74 | 15.2 | inactive
KIFC2 | 2 | -1.27 | -5.95 | inactive
KIFC2 | 3 | -0.684 | -1.85 | inactive
CLHC1 | 1 | 5.63 | 42.6 | active
CLHC1 | 2 | 3.61 | 28.3 | inactive
CLHC1 | 3 | -0.202 | 1.55 | inactive
LRRC19 | 1 | 0.995 | 9.97 | inactive
LRRC19 | 2 | 1.76 | 15.3 | inactive
LRRC19 | 3 | -0.577 | -1.09 | inactive
CRISPLD2 | 1 | -0.923 | -3.53 | inactive
CRISPLD2 | 2 | 1.2 | 11.4 | inactive
CRISPLD2 | 3 | 4.19 | 32.4 | inactive
WASL | 1 | -0.414 | 0.0555 | inactive
WASL | 2 | 0.923 | 9.46 | inactive
WASL | 3 | -0.797 | -2.64 | inactive
CD37 | 1 | -0.666 | -1.72 | inactive
CD37 | 2 | 5.87 | 44.2 | active
CD37 | 3 | 0.935 | 9.55 | inactive
BEX1 | 1 | 0.38 | 5.64 | inactive
BEX1 | 2 | -0.432 | -0.0718 | inactive
BEX1 | 3 | -0.708 | -2.01 | inactive
EFCAB12 | 1 | 0.277 | 4.92 | inactive
EFCAB12 | 2 | 1.63 | 14.4 | inactive
EFCAB12 | 3 | 1.05 | 10.3 | inactive
GATA3-AS1 | 1 | -0.0951 | 2.3 | inactive
GATA3-AS1 | 2 | -0.675 | -1.78 | inactive
GATA3-AS1 | 3 | -0.347 | 0.524 | inactive
PHKA2 | 1 | 1.97 | 16.8 | inactive
PHKA2 | 2 | 0.967 | 9.77 | inactive
PHKA2 | 3 | 1.02 | 10.1 | inactive
LIN37 | 1 | 6.28 | 47.1 | active
LIN37 | 2 | -0.483 | -0.432 | inactive
LIN37 | 3 | 1.82 | 15.8 | inactive

7 entries from above, reduced to “G2 cells, % of GMNN control”:
CLHC1 #1: 42.6
CLHC1 #2: 28.3
CLHC1 #3: 1.55
LRRC19 #1: 9.97
LRRC19 #2: 15.3
LRRC19 #3: -1.09
CRISPLD2 #1: -3.53
